Reference: article doi:10.1101/491274
These are yes or no findings as the source states them, for the method shown. Binding seen in cells or lysates may run through a third protein. Where a sequence is shown, tags or fusion partners need not be part of it.

Assays:
Assay in all cases: co-IP
[1] = biological target: T1, human wildtype LARP6 (precipitated with anti-FLAG antibody) (human) (UniProt Q9BRS8)
T1 sequence: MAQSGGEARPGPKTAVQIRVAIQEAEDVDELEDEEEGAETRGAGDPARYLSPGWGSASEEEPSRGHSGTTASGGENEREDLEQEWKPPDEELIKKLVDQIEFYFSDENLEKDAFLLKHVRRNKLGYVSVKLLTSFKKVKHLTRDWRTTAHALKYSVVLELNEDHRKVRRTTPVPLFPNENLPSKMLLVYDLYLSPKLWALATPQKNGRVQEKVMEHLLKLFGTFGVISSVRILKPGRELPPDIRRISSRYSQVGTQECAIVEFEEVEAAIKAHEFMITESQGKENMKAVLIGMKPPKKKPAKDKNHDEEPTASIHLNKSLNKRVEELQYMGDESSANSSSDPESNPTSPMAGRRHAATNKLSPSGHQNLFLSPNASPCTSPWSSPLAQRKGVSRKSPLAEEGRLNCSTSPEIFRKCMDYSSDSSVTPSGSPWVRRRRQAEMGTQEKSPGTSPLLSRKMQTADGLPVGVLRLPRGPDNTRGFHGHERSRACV

[2] = biological target: T2, FLAG-tagged human wildtype La (human) (UniProt P05455)
T2 sequence: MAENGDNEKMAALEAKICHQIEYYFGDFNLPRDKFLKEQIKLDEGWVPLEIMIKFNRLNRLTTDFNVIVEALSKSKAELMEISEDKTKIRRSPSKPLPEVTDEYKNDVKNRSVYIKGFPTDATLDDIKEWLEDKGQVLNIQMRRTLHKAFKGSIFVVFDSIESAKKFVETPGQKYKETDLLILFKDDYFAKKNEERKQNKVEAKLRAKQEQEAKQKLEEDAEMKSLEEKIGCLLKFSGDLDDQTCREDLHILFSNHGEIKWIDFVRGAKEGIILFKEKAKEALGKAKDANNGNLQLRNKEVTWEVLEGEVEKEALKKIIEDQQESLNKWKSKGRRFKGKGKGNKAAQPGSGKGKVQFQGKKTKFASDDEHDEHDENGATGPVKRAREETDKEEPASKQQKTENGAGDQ

[3] = biological target: T3, human wildtype LARP7 (precipitated with anti-FLAG antibody) (human) (UniProt Q4G0J3)
T3 sequence: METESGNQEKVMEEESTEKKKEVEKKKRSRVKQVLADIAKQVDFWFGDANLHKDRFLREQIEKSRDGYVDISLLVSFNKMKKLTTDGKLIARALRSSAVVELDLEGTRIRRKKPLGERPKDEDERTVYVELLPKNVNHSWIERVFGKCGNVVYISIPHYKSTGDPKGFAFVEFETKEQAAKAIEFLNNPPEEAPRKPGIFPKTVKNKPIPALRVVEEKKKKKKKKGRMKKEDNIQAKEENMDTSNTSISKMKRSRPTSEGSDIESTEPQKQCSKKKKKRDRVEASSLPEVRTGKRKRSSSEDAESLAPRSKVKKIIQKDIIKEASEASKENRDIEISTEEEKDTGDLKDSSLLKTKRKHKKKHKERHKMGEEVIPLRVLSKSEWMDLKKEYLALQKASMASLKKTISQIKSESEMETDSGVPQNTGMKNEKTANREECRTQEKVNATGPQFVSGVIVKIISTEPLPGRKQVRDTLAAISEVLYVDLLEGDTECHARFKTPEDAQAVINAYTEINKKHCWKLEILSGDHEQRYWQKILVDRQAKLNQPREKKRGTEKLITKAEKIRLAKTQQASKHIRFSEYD

Measured: binding

endogenous poly(A)-binding protein (PABP) (human (endogenous in HEK293T))
no binding: [1] | [2] | [3]
